PubChem BioAssay AID504774 | Drosophila RNAi Screening Center | 2011

Aim: 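Fly genes whose loss alters survival after alkylation damage to DNA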 (primary screen)
Cell system: Drosophila Kc167 cells
Knock-down reagent: long dsRNA against Drosophila genes, about 0.25 µg dsRNA per well
Timing: about 6 days: 3 days knock-down, then 3 days with or without MMS
Challenge: methyl methanesulphonate 0.004% (w/v) for 3 days after knock-down
Detection: 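ATP-dependent luminescence as a measure of live cells in MMS-exposed wells, quantile normalised within each plate, with replicate values also given as a mean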
Reading the numbers: mean viability with MMS and viability with MMS: higher = more surviving cells after MMS
In all, the deposit lists about 23,000 reagents; below is an unselected part of those with a known target gene and a result. 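Values are quantile-normalised luminescence on an arbitrary scale; higher means more cells surviving MMS.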 A plus sign joins genes that one reagent is predicted to hit.

gene knocked down | PubChem SID | mean viability with MMS | viability with MMS, replicate 1 | viability with MMS, replicate 2
CG11756 (GeneID 32074) | SID104199216 | 3.61e6 | 4.21e6 | 3.95e6
CG17375 (GeneID 33956) | SID104182406 | 3.61e6 | 4.06e6 | 4.08e6
SdhD (GeneID 42808) | SID104194007 | 3.53e6 | 4.05e6 | 3.95e6
tinc (GeneID 42148) | SID104194590 | 3.71e6 | 4.23e6 | 4.18e6
tinc (GeneID 42148) | SID104194591 | 3.65e6 | 4.25e6 | 4.03e6
tinc (GeneID 42148) | SID104196100 | 3.38e6 | 3.85e6 | 3.84e6
tinc (GeneID 42148) | SID104196101 | 3.51e6 | 3.98e6 | 3.98e6
St3 (GeneID 37743) | SID104184297 | 3.63e6 | 3.92e6 | 4.14e6
san (GeneID 44724) | SID104187487 | 3.55e6 | 4.06e6 | 4.00e6
CG6026 (GeneID 42287) | SID104195742 | 3.58e6 | 4.25e6 | 3.87e6
Dic1 (GeneID 41640) | SID104193917 | 3.38e6 | 3.90e6 | 3.74e6
jar (GeneID 42889) | SID104196766 | 3.55e6 | 4.04e6 | 4.00e6
Grl36a (GeneID 170887) | SID104201417 | 3.63e6 | 4.07e6 | 4.15e6
CG31845 (retired record) (GeneID 318978) | SID104201781 | 3.31e6 | 3.87e6 | 3.83e6
CG31845 (retired record) (GeneID 318978) | SID104202431 | 2.94e6 | 3.41e6 | 3.05e6
l(3)87Df (GeneID 49762) | SID104196774 | 3.61e6 | 3.95e6 | 4.27e6
CG4712 (GeneID 36469) | SID104186674 | 3.68e6 | 4.25e6 | 4.15e6
CG3734 (GeneID 42318) | SID104195301 | 3.51e6 | 3.98e6 | 3.99e6
COX6AL2 + Ir75d | SID104189873 | 3.41e6 | 3.81e6 | 3.89e6
CG15916 (GeneID 32549) | SID104199532 | 3.52e6 | 4.02e6 | 3.97e6
pyd3 (GeneID 40916) | SID104195251 | 3.57e6 | 4.08e6 | 4.04e6
pyd3 (GeneID 40916) | SID104201332 | 3.47e6 | 3.95e6 | 3.95e6
cocoon (GeneID 39665) | SID104190708 | 3.58e6 | 3.95e6 | 4.16e6
CR30029 (GeneID 5740197) | SID104186516 | 3.71e6 | 3.84e6 | 4.58e6
CPT2 (GeneID 38355) | SID104188345 | 3.26e6 | 3.77e6 | 3.74e6
CG11293 (retired record) (GeneID 37745) | SID104183890 | 3.71e6 | 4.17e6 | 4.20e6
CG15651 (GeneID 37375) | SID104184034 | 3.41e6 | 3.89e6 | 3.79e6
CG10283 (GeneID 35102) | SID104181826 | 3.59e6 | 3.90e6 | 4.27e6
eIF3g1 (GeneID 31243) | SID104198219 | 2.91e6 | 3.70e6 | 3.60e6
lilli (GeneID 33496) | SID104180500 | 3.86e6 | 4.17e6 | 4.61e6
CG7497 (GeneID 39966) | SID104190649 | 3.48e6 | 4.00e6 | 3.89e6
Rpn1 (GeneID 40174) | SID104191066 | 2.92e6 | 3.59e6 | 3.56e6
CG18754 (GeneID 59145) | SID104195179 | 3.48e6 | 4.10e6 | 3.76e6
ssh (GeneID 42986) | SID104196522 | 3.43e6 | 3.88e6 | 3.87e6
tst (GeneID 42813) | SID104194004 | 3.48e6 | 4.13e6 | 3.77e6
grn (GeneID 40962) | SID104192458 | 2.80e6 | 3.58e6 | 3.58e6
grn (GeneID 40962) | SID104196753 | 3.73e6 | 4.19e6 | 4.22e6
l(3)76BDm (GeneID 40140) | SID104190839 | 3.68e6 | 4.06e6 | 4.22e6
PPYR1 (GeneID 32453) | SID104199404 | 3.55e6 | 4.13e6 | 3.94e6
Idgf5 (GeneID 37104) | SID104186711 | 3.49e6 | 3.93e6 | 3.96e6
CG1620 (GeneID 35678) | SID104186395 | 3.12e6 | 2.55e6 | 3.94e6
CG8833 (GeneID 39535) | SID104190842 | 3.41e6 | 3.76e6 | 3.95e6
Taf1 (GeneID 40813) | SID104192399 | 3.32e6 | 3.84e6 | 3.74e6
CG18265 (GeneID 39947) | SID104190102 | 3.72e6 | 4.15e6 | 4.20e6
Acsx1R (GeneID 42352) | SID104194131 | 3.61e6 | 3.94e6 | 4.25e6
sowi (GeneID 40809) | SID104192350 | 3.60e6 | 4.16e6 | 4.00e6
